Results are given in words; binding and its absence hold for the method and conditions named. Some results given as binding are weak or reduced against the parent protein; the word gives no strength.
Key:
[1] = molecular target: human PD-L1 on transfected CHO cells (CHO/hPD-L1) (human) (UniProt Q9NZQ7); test: FACS on hPD-L1 (cells not named)
[2] = molecular target: human PD-L1 on transfected CHO cells (CHO/hPD-L1) (human) (UniProt Q9NZQ7); test: FACS on hPD-L1; the cells are not named in the text or on the sheet
[3] = molecular target: hPD-L1 (antigen of the Fortebio Octet assay) (human) (UniProt Q9NZQ7); test: Fortebio Octet sensorgrams, concentrations not given

Chains of the proteins cited; added tags and fusions are not shown. Lines headed by an entry give the natural chain unless they say otherwise; changes in a name come on top.
UniProt Q9NZQ7: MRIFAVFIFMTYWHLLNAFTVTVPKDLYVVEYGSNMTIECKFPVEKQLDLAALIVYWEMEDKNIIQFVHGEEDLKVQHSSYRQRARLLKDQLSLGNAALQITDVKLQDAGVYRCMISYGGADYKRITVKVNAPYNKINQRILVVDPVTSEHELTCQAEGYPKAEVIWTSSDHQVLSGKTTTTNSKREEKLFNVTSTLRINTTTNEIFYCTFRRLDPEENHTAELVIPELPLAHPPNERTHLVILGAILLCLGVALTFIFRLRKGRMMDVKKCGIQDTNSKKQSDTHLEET

binding [1]: binds | binding [2]: binds | binding [3]: binds
B1: anti-PD-L1 IgG1 (parental antibody of Example 3) (antibody, V domains shown)
VH: EVQLQQSGAELVKPGASVKLSCTASGFNIKDTYMYWVKQRPEQGLECIGRIDPANDNTKYDPKFQGKATITADTSSNTAYVQLASLTSEDTAVYYCARAKNLLNYFDYWGQGTTLTVSS
VL: DIQMTQSPSSLSASLGERVTLSCRASQEISGYLSWLQQKPDGTIKRLIYATSTLDSGVPKRFSGSRSGSDYSLTISSLESEDFADYYCLQYAIYPLTFGAGTKLELKR
notes: IgG1; also called parental control antibody
